PubChem BioAssay AID1259254 | NCATS, 2017
In all, the deposit lists about 59,000 reagents; shown is a random part of them. About 1,550 of them (2.6%) count as active. 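G2 share is only a proxy for re-replication; each gene was hit by three separate siRNAs, and active genes were retested.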 Raw values vary from plate to plate and are shown uncorrected. The numbers tell different reagents against one gene apart. Not stated in the record: the amount of reagent.

Assay: 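Gene knock-downs that lead to re-replication, shown by excess G2 DNA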 (primary screen)
Cells: human HCT116 colorectal cancer cells
Reagents: single siRNA against human genes
Duration: 3 days
Measured: 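Nuclei stained with Hoechst and imaged; cell-cycle phase assigned by DNA content; G2 share scaled per plate, non-targeting siRNA 0%, GMNN siRNA 100%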
Reading the numbers: G2 robust z-score and G2 cells, % of GMNN control: higher = more G2 cells, more excess DNA replication; raw share of cells in G2: higher = larger share of cells with G2 DNA content
Hit rule: 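An siRNA counts as active if its G2 robust z-score lies at least 5 MADs above the screen median; here such calls match roughly 38% of GMNN control or more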

| G2 robust z-score | G2 cells, % of GMNN control | raw share of cells in G2 (%) | Call | Gene | reagent |
| --- | --- | --- | --- | --- | --- |
| -0.709 | -2.02 | 2.51 | inactive | MED16 | 1 |
| 4.23 | 32.7 | 18 | inactive | MED16 | 2 |
| -1.07 | -4.57 | 3.48 | inactive | MED16 | 3 |
| 0.629 | 7.39 | 8.14 | inactive | UCHL5 | 1 |
| 0.612 | 7.27 | 7.48 | inactive | UCHL5 | 2 |
| -0.564 | -1 | 3.54 | inactive | UCHL5 | 3 |
| 0.534 | 6.72 | 9.38 | inactive | DHX32 | 1 |
| 1.79 | 15.6 | 10 | inactive | DHX32 | 2 |
| -0.897 | -3.34 | 2.94 | inactive | DHX32 | 3 |
| -1.49 | -7.53 | 3.25 | inactive | MPP4 | 1 |
| -0.641 | -1.54 | 4.63 | inactive | MPP4 | 2 |
| -1.38 | -6.77 | 1.51 | inactive | MPP4 | 3 |
| 2.39 | 19.8 | 13.2 | inactive | TTPAL | 1 |
| 0.555 | 6.88 | 7.69 | inactive | TTPAL | 2 |
| 0.159 | 4.09 | 3.78 | inactive | TTPAL | 3 |
| 0.755 | 8.28 | 6.58 | inactive | CCDC171 | 1 |
| -0.875 | -3.19 | 2.04 | inactive | CCDC171 | 2 |
| -0.545 | -0.869 | 2.92 | inactive | CCDC171 | 3 |
| 0.258 | 4.78 | 6.35 | inactive | AMFR | 1 |
| 0.969 | 9.78 | 8.55 | inactive | AMFR | 2 |
| -0.526 | -0.735 | 3.72 | inactive | AMFR | 3 |
| 1.04 | 10.3 | 8.78 | inactive | HNRNPC | 1 |
| -0.0547 | 2.58 | 6.67 | inactive | HNRNPC | 2 |
| -0.695 | -1.92 | 3.5 | inactive | HNRNPC | 3 |
| -0.0498 | 2.62 | 5.64 | inactive | RNASET2 | 1 |
| -1.42 | -7.01 | 2.8 | inactive | RNASET2 | 2 |
| -0.156 | 1.87 | 5.39 | inactive | RNASET2 | 3 |
| -0.434 | -0.0859 | 3.04 | inactive | MANEAL | 1 |
| -1.27 | -5.99 | 1.82 | inactive | MANEAL | 2 |
| 2.72 | 22.1 | 9.75 | inactive | MANEAL | 3 |

Part of the list above, reduced to “raw share of cells in G2 (%)”:
MANEAL #1	3.04
MANEAL #2	1.82
